Assay results taken from PubChem BioAssay AID248 (DTP/NCI, 2004).
The list is a part of this screen's results and no random one: it is rich in T/C values a quarter to a half above the control, in often repeated tests (any T/C) and in doses without a T/C. Further doses and runs are listed elsewhere. T/C gives the treated animals as a percentage of the vehicle group. Some doses have a count of surviving animals in place of a T/C: the source files T/C as zero there, which appears to mark a toxic dose or a test without result, not a measured value. Some survivor counts are full or nearly so, which does not show that the dose was tolerated: survival well below the control is almost never listed, so the zero probably covers shortened survival too. Counts of survivors are from the toxicity check (mostly the fifth day) where no day follows; animals may have died later. Schedules are NCI's codes, taken here to give the interval after Q, in days (D) or hours (H), and the number of doses after X. Some entries were tested several times; the values are given in rising order. Some schedule codes hold Z or #, which are not explained here. For survival time, this PubChem deposit counts one and a half times the control or more as active, and values a quarter to a half above the control carry no call in these data; other NCI protocols may use other cut-offs. Some T/C values are followed by the survivors on the day toxicity was checked, most often the fifth; without a count, all were alive then.

Tested on: L1210 leukemia ip in BDF1 mice, survival T/C
Experiment: NCI In Vivo Anticancer Drug Screen. Data for tumor model L1210 Leukemia (intraperitoneal) in B6D2F1 (BDF1) mice
Settings: T/C endpoint: mean survival time, higher T/C = longer survival
[1] = dose: 400.0 mg/kg/injection, schedule: Q04DX002 (ip), vehicle: saline with Tween-80
[2] = dose: 400.0 mg/kg/injection, schedule: Q04DX003 (ip), vehicle: saline with Tween-80
[3] = dose: 200.0 mg/kg/injection, schedule: Q01DX001 (ip), vehicle: saline
[4] = dose: 400.0 mg/kg/injection, schedule: Q01DX001 (ip), vehicle: saline
[5] = dose: 400.0 mg/kg/injection, schedule: Q01DX009 (ip), vehicle: saline

SMILES: CC(=C/c1ccccc1)/C=N/N=C(N)N
- survivor count (dose: 30.0 mg/kg/injection, schedule: Q01DX Z (ip), vehicle: saline): 3 of 6
- survivor count (dose: 62.5 mg/kg/injection, schedule: Q01DX Z (ip), vehicle: saline): 0 of 6
- survivor count (dose: 125.0 mg/kg/injection, schedule: Q01DX Z (ip), vehicle: saline): 0 of 6
- survivor count (dose: 250.0 mg/kg/injection, schedule: Q01DX Z (ip), vehicle: saline): 0 of 6
- survivor count (dose: 500.0 mg/kg/injection, schedule: Q01DX Z (ip), vehicle: saline): 0 of 6

SMILES: NC(=O)Nc1ccc(Br)cc1Br
- survivor count (dose: 400.0 mg/kg/injection, schedule: Q04DX002 (ip), vehicle: Klucel (hydroxypropylcellulose) (HPC)): 3 of 3

SMILES: N#CCCSCCc1ccccc1
- survivor count (dose: 300.0 mg/kg/injection, schedule: Q01DX009 (ip), vehicle: saline with Tween-80): 3 of 6

SMILES: CNCCC(=O)NCC1C(c2ccccc2)C1c1ccccc1 (stereo not given)
- survivor count (dose: 25.0 mg/kg/injection, schedule: Q04DX002 (ip), vehicle: saline with Tween-80): 3 of 3
- survivor count (dose: 50.0 mg/kg/injection, schedule: Q04DX002 (ip), vehicle: saline with Tween-80): 3 of 3
- survivor count (dose: 200.0 mg/kg/injection, schedule: Q04DX002 (ip), vehicle: saline with Tween-80): 0 of 3
- survivor count [1]: 0 of 3

SMILES: C=C(C)CC1(CC)C(=O)NC(=S)NC1=O
- survivor count [2]: 3 of 6

SMILES: [O-][n+]1c(CCl)nc2cccc3c2c1-c1ccccc1-3
- survivor count (dose: 200.0 mg/kg/injection, schedule: Q04DX003 (ip), vehicle: saline with Tween-80): 7 of 7

SMILES: Cc1ccc(C(=O)Nc2ncn(C3CC(O)C(CO)O3)c(=O)n2)cc1 (stereo not given)
- T/C (dose: 12.5 mg/kg/injection, schedule: Q04DX003 (ip), vehicle: saline with Tween-80): 130 % of control
- T/C (dose: 25.0 mg/kg/injection, schedule: Q01DX005 (ip), vehicle: saline): 147 % of control

SMILES: CC1=CC(C)(C(Cl)(Cl)Cl)C=C/C1=N\OC(C)C(=O)O (stereo not given)
- survivor count (dose: 300.0 mg/kg/injection, schedule: Q01DX001 (ip), vehicle: carboxymethylcellulose (CMC)): 2 of 6

SMILES: Cc1nc(N)[nH]c(=O)c1CCCNc1ccc(CCC(=O)CCl)cc1
- survivor count (dose: 400.0 mg/kg/injection, schedule: Q01DX Z (ip), vehicle: carboxymethylcellulose (CMC)): 6 of 6

SMILES: O=C(Nc1ccc(NC(=O)Nc2ccc(C3=NCCCN3)cc2)cc1)Nc1ccc(C2=NCCCN2)cc1
- T/C (dose: 19.0 mg/kg/injection, schedule: Q04DX003 (ip), vehicle: saline): 128 % of control
- T/C (dose: 29.0 mg/kg/injection, schedule: Q04DX003 (ip), vehicle: saline): 125 % of control
- T/C (dose: 45.0 mg/kg/injection, schedule: Q04DX003 (ip), vehicle: saline): 135 % of control
- T/C (dose: 65.0 mg/kg/injection, schedule: Q04DX003 (ip), vehicle: saline): 137 % of control
- T/C (dose: 100.0 mg/kg/injection, schedule: Q04DX003 (ip), vehicle: saline): 133 % of control
- T/C [3]: 134 and 135 % of control
- T/C (dose: 264.0 mg/kg/injection, schedule: Q01DX001 (ip), vehicle: saline): 146 % of control
- T/C [4]: 145, 188, 198, 255 % of control

SMILES: CCCCCCCCSCCOC(=O)C1C2CCC(O2)C1C(=O)O (stereo not given)
- survivor count (dose: 100.0 mg/kg/injection, schedule: Q01DX009 (ip), vehicle: Klucel (hydroxypropylcellulose) (HPC)): 0 of 6
- survivor count (dose: 200.0 mg/kg/injection, schedule: Q01DX009 (ip), vehicle: Klucel (hydroxypropylcellulose) (HPC)): 0 of 6
- survivor count (dose: 400.0 mg/kg/injection, schedule: Q01DX009 (ip), vehicle: Klucel (hydroxypropylcellulose) (HPC)): 0 of 6

SMILES: C(=C(c1ccccc1)c1ccccc1)c1ccccn1
- survivor count [2]: 6 of 6

SMILES: CNC(=O)Oc1c([N+](=O)[O-])cc([N+](=O)[O-])c2ccccc12
- survivor count (dose: 300.0 mg/kg/injection, schedule: Q01DX001 (ip), vehicle: other): 0 of 6

SMILES: CN(C)CCNc1ccc([N+](=O)[O-])c2sc3ccccc3c(=O)c12
- T/C (dose: 8.0 mg/kg/injection, schedule: Q01DX Z (ip), vehicle: methylcellulose (MC)): 126 % of control
- T/C (dose: 12.0 mg/kg/injection, schedule: Q01DX Z (ip), vehicle: methylcellulose (MC)): 107 [5 of 6 alive], 134, 144, 153 % of control
- T/C (dose: 17.7 mg/kg/injection, schedule: Q01DX Z (ip), vehicle: carboxymethylcellulose (CMC)): 137 % of control
- T/C (dose: 18.0 mg/kg/injection, schedule: Q01DX Z (ip), vehicle: carboxymethylcellulose (CMC)): 128 % of control
- T/C (dose: 18.0 mg/kg/injection, schedule: Q01DX Z (ip), vehicle: methylcellulose (MC)): 102 [4 of 6 alive], 155, 163, 177 % of control
- T/C (dose: 40.0 mg/kg/injection, schedule: Q01DX Z (ip), vehicle: carboxymethylcellulose (CMC)): 142 % of control
- survivor count (dose: 40.0 mg/kg/injection, schedule: Q01DX Z (ip), vehicle: methylcellulose (MC)): 1 of 6
- T/C (dose: 41.0 mg/kg/injection, schedule: Q01DX Z (ip), vehicle: methylcellulose (MC)): 131 % of control
- survivor count (dose: 60.0 mg/kg/injection, schedule: Q01DX Z (ip), vehicle: carboxymethylcellulose (CMC)): 5 of 6
- survivor count (dose: 60.0 mg/kg/injection, schedule: Q01DX Z (ip), vehicle: methylcellulose (MC)): 6 of 6
- survivor count (dose: 90.0 mg/kg/injection, schedule: Q01DX Z (ip), vehicle: carboxymethylcellulose (CMC)): 6 of 6
- survivor count (dose: 90.0 mg/kg/injection, schedule: Q01DX Z (ip), vehicle: methylcellulose (MC)): 6 of 6

SMILES: CCCCC(CC)COP(=O)(OCC(CC)CCCC)c1ccccc1 (stereo not given)
- survivor count [3]: 2 of 4
- survivor count [4]: 0 of 4

SMILES: CCNC(=O)c1ccc(NC(=O)Nc2ccc(C3=NCCN3)cc2)cc1NC(=O)Nc1ccc(C2=NCCN2)cc1
- T/C (dose: 25.0 mg/kg/injection, schedule: Q01DX015 (ip), vehicle: water): 147 % of control
- T/C (dose: 46.0 mg/kg/injection, schedule: Q01DX001 (ip), vehicle: water): 130 and 133 % of control
- T/C (dose: 93.0 mg/kg/injection, schedule: Q01DX001 (ip), vehicle: water): 145 % of control
- survivor count (dose: 125.0 mg/kg/injection, schedule: Q01DX Z (ip), vehicle: water): 0 of 6
- survivor count (dose: 250.0 mg/kg/injection, schedule: Q01DX Z (ip), vehicle: water): 0 of 6
- survivor count (dose: 500.0 mg/kg/injection, schedule: Q01DX Z (ip), vehicle: water): 0 of 6

SMILES: COc1cc(C(=O)OC(C)CN2CCOCC2)cc(OC)c1OC (stereo not given)
- survivor count [5]: 4 of 6

SMILES: Nc1ncc(N=O)c(=O)[nH]1
- survivor count (dose: 200.0 mg/kg/injection, schedule: Q04DX002 (ip), vehicle: Klucel (hydroxypropylcellulose) (HPC)): 3 of 3

SMILES: CCN(CC)CCOc1ccc(/C=C2\CCc3ccccc3C2=O)cc1
- survivor count (dose: 200.0 mg/kg/injection, schedule: Q04DX003 (ip), vehicle: saline): 0 of 6

SMILES: CC(=O)Nc1ccc(/C=N\N=C\c2ccc(NC(C)=O)cc2)cc1
- survivor count [5]: 4 of 6

SMILES: CC1(C)OC(O)C(C(O)C(O)C(O)C(=O)O)O1 (stereo not given)
- survivor count (dose: 400.0 mg/kg/injection, schedule: Q04DX002 (ip), vehicle: saline): 0 of 3

SMILES: ICc1ccc(CI)cc1
- survivor count (dose: 50.0 mg/kg/injection, schedule: Q01DX009 (ip), vehicle: saline): 3 of 6
- survivor count (dose: 100.0 mg/kg/injection, schedule: Q01DX009 (ip), vehicle: saline): 0 of 6
- survivor count (dose: 200.0 mg/kg/injection, schedule: Q04DX003 (ip), vehicle: acetone): 6 of 6
- survivor count (dose: 400.0 mg/kg/injection, schedule: Q04DX003 (ip), vehicle: acetone): 2 of 6

SMILES: Nc1nc(Cl)c(N=Nc2ccccc2)c(=O)[nH]1
- T/C (dose: 100.0 mg/kg/injection, schedule: Q01DX009 (ip), vehicle: carboxymethylcellulose (CMC)): 91, 95, 100, 109 % of control
- survivor count (dose: 200.0 mg/kg/injection, schedule: Q01DX009 (ip), vehicle: carboxymethylcellulose (CMC)): 3 of 3 and 6 of 6
- survivor count (dose: 200.0 mg/kg/injection, schedule: Q04DX002 (ip), vehicle: carboxymethylcellulose (CMC)): 3 of 3
- survivor count (dose: 400.0 mg/kg/injection, schedule: Q01DX009 (ip), vehicle: carboxymethylcellulose (CMC)): 2 of 3 and 5 of 6

SMILES: CS(=O)(=O)c1ccccc1C(=O)O
- survivor count (dose: 400.0 mg/kg/injection, schedule: Q01DX001 (ip), vehicle: acetone): 3 of 6

SMILES: O=P(O)(Oc1cccc(Cl)c1)Oc1cccc(Cl)c1
- survivor count [1]: 2 of 3
